Data as given in PubChem BioAssay AID493246 (Drosophila RNAi Screening Center, 2011)
In all, the deposit lists about 21,000 reagents; shown is a random part of those with a known target gene and a result. In the full data, 429 (2%) were called active. 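Values are raw and not normalised between plates; calls rest on per-plate z-scores that were not deposited.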 Reagents against one gene are numbered here. A plus sign joins genes that one reagent is predicted to hit. Not stated in the record: the amount of reagent, the time to read-out.

Assay: 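Genome-wide search for dsRNAs that reduce cell number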 (primary screen)
System: Drosophila Kc and S2R+ cells
Reagents: long dsRNA against Drosophila genes
Measurement: 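Raw, unnormalised count of remaining cells in each well; per-plate z-scores of cell number underlie the calls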
Scale: Kc cell number and S2R+ cell number: higher = more cells remaining
Rule for the call: 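Counted as a hit if cell number falls by a z-score of at least 3 within its plate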

target | dsRNA no. | Kc cell number, rep 1 | Kc cell number, rep 2 | S2R+ cell number, rep 1 | S2R+ cell number, rep 2 | Call
CG6055 | 1 | 1.64e6 | 1.60e6 | 1.28e6 | 1.50e6 | inactive
CG9632 | 1 | 1.40e6 | 1.41e6 | 1.07e6 | 1.18e6 | inactive
tbrd-3 | 1 | 1.55e6 | 1.66e6 | 1.21e6 | 1.36e6 | inactive
CG34056 | 1 | 1.55e6 | 1.43e6 | 9.95e5 | 1.18e6 | inactive
CG14439 | 1 | 1.47e6 | 1.47e6 | 1.03e6 | 1.14e6 | inactive
CG33998 | 1 | 5.30e5 | – | 7.40e5 | – | inactive
JMJD4 | 1 | 1.31e6 | 1.36e6 | 1.32e6 | 1.28e6 | inactive
CG30151 | 1 | 5.14e5 | – | 7.53e5 | – | inactive
PyK | 1 | 1.07e6 | 1.15e6 | 1.05e6 | 1.14e6 | inactive
CG17145 | 1 | 1.65e6 | 1.73e6 | 1.27e6 | 1.49e6 | inactive
eIF6 | 1 | 1.33e6 | 1.39e6 | 1.05e6 | 1.07e6 | inactive
Fak | 1 | 1.47e6 | 1.53e6 | 1.18e6 | 1.24e6 | inactive
Pgant2 | 1 | 1.66e6 | 1.58e6 | 1.11e6 | 1.23e6 | inactive
CG32191 | 1 | 1.40e6 | 1.42e6 | 1.19e6 | 1.25e6 | inactive
SerRS-m | 1 | 1.23e6 | 1.30e6 | 1.23e6 | 1.31e6 | inactive
POSH | 1 | 1.64e6 | 1.66e6 | 1.28e6 | 1.42e6 | inactive
CG13670 | 1 | 1.58e6 | 1.53e6 | 1.23e6 | 1.24e6 | inactive
CG10035 | 1 | 1.47e6 | 1.51e6 | 1.20e6 | 1.31e6 | inactive
4E-T | 1 | 4.87e5 | – | 7.84e5 | – | inactive
4E-T | 2 | 1.47e6 | 1.57e6 | 1.05e6 | 1.23e6 | inactive
Zip102B | 1 | 1.48e6 | 1.49e6 | 1.02e6 | 1.11e6 | inactive
AnxB11 | 1 | 6.65e5 | – | 9.25e5 | – | inactive
Osi2 | 1 | 1.62e6 | 1.73e6 | 1.30e6 | 1.42e6 | inactive
CG5180 | 1 | 1.62e6 | 1.59e6 | 1.15e6 | 1.16e6 | inactive
PSMG1 | 1 | 1.48e6 | 1.51e6 | 1.28e6 | 1.40e6 | inactive
Ugt316A1 | 1 | 1.46e6 | 1.67e6 | 1.25e6 | 1.33e6 | inactive
Wdr24 | 1 | 5.23e5 | – | 7.28e5 | – | inactive
CG17648 | 1 | 1.65e6 | 1.55e6 | 1.17e6 | 1.43e6 | inactive
Glys | 1 | 1.66e6 | 1.74e6 | 1.40e6 | 1.47e6 | inactive
Nox | 1 | 1.51e6 | 1.58e6 | 1.14e6 | 1.26e6 | inactive
Nox | 2 | 1.53e6 | 1.59e6 | 1.09e6 | 1.25e6 | inactive
beta-Man | 1 | 1.48e6 | 1.50e6 | 1.31e6 | 1.40e6 | inactive
beta-Man | 2 | 1.33e6 | 1.36e6 | 1.35e6 | 1.43e6 | inactive
cona | 1 | 1.23e6 | 1.20e6 | 1.06e6 | 1.17e6 | inactive
CG4286 | 1 | 1.49e6 | 1.58e6 | 1.26e6 | 3.47e5 | inactive
CG42355 | 1 | 1.48e6 | 1.37e6 | 9.44e5 | 1.03e6 | inactive
rho-7 | 1 | 1.66e6 | 1.64e6 | 1.34e6 | 1.47e6 | inactive
CR40354 | 1 | 1.44e6 | 1.59e6 | 1.11e6 | 1.14e6 | inactive
CG2121 | 1 | 1.31e6 | 1.35e6 | 1.08e6 | 1.19e6 | inactive
CG2121 | 2 | 1.70e6 | 1.75e6 | 1.41e6 | 1.54e6 | inactive
Akt | 1 | 1.46e6 | 1.51e6 | 1.17e6 | 1.21e6 | inactive
kipf | 1 | 1.32e6 | 1.41e6 | 9.98e5 | 1.13e6 | inactive
synr | 1 | 1.81e6 | 1.91e6 | 1.32e6 | 1.51e6 | inactive
piwi | 1 | 1.34e6 | 1.39e6 | 1.21e6 | 1.21e6 | inactive
CG6481 | 1 | 1.57e6 | 1.57e6 | 1.14e6 | 1.30e6 | inactive
CG13716 | 1 | 1.73e6 | 1.70e6 | 1.07e6 | 1.16e6 | inactive
Vha100-1 | 1 | 5.11e5 | – | 7.94e5 | – | inactive
Pfrx | 1 | 1.73e6 | 1.73e6 | 1.13e6 | 1.32e6 | inactive
Pfrx | 2 | 1.20e6 | 1.45e6 | 1.12e6 | 1.26e6 | inactive
enc | 1 | 1.23e6 | 1.28e6 | 1.00e6 | 1.22e6 | inactive
Acsx1R | 1 | 1.23e6 | 1.23e6 | 1.10e6 | 1.17e6 | inactive
CG12730 | 1 | 1.55e6 | 1.55e6 | 1.03e6 | 1.11e6 | inactive
CG33758 | 1 | 1.43e6 | 1.45e6 | 9.41e5 | 1.05e6 | inactive
Slu7 | 1 | 1.27e6 | 1.41e6 | 8.33e5 | 9.58e5 | inactive
CG4467 | 1 | 1.58e6 | 1.74e6 | 1.04e6 | 1.14e6 | inactive
CG6280 | 1 | 1.66e6 | 1.69e6 | 1.22e6 | 1.37e6 | inactive
CG17190 | 1 | 1.47e6 | 1.47e6 | 1.08e6 | 1.16e6 | inactive
Col4a1 | 1 | 1.30e6 | 1.32e6 | 5.75e5 | 7.69e5 | inactive
CG12860 | 1 | 1.48e6 | 1.54e6 | 1.23e6 | 1.32e6 | inactive
Dop1R2 | 1 | 1.24e6 | 1.55e6 | 1.11e6 | 1.16e6 | inactive
Dop1R2 | 2 | 1.43e6 | 1.45e6 | 9.56e5 | 1.08e6 | inactive
CG12360 (retired record) | 1 | 1.58e6 | 1.61e6 | 1.03e6 | 1.21e6 | inactive
Nmd3 | 1 | 5.84e5 | – | 8.53e5 | – | inactive
tctn + B9d2 | 1 | 1.74e6 | 1.79e6 | 1.26e6 | 1.46e6 | inactive
CG5808 | 1 | 1.57e6 | 1.59e6 | 1.21e6 | 1.29e6 | inactive
CG4259 | 1 | 1.51e6 | 1.54e6 | 1.03e6 | 1.18e6 | inactive
Spase25 | 1 | 5.58e5 | – | 8.27e5 | – | inactive
tj | 1 | 1.56e6 | 1.69e6 | 1.17e6 | 3.23e5 | inactive
CG15545 | 1 | 1.52e6 | 1.55e6 | 1.06e6 | 1.12e6 | inactive
CG1722 | 1 | 1.55e6 | 1.54e6 | 1.17e6 | 1.23e6 | inactive
CG31259 | 1 | 1.42e6 | 1.56e6 | 1.23e6 | 1.28e6 | inactive
CG9016 | 1 | 1.52e6 | 1.49e6 | 1.11e6 | 1.27e6 | inactive
CG14598 | 1 | 1.63e6 | 1.78e6 | 1.30e6 | 1.42e6 | inactive
CG17824 (retired record) | 1 | 1.36e6 | 1.54e6 | 1.39e6 | 1.53e6 | inactive
ProRS-m | 1 | 1.45e6 | 1.09e6 | 1.12e6 | 1.30e6 | inactive
